# Results: US20250302080A1, “SWEETNESS AND/OR FLAVOR ENHANCER” (AJINOMOTO CO., INC., priority 2022, published 2025)
# Some compounds share one wording; it may come from a single statement.
# Tests used:
# [1] = Smell added, sucralose solution (Experimental Examples 23-24); settings: added alone at 10000 ppb to 0.0140 wt % sucralose solution; two or more of four panel members detected smell
# [2] = Smell added, RebA solution (Experimental Examples 17-19); settings: acid added alone at 10000 ppb
# [3] = Smell added, aspartame solution (Experimental Example 22)
# [4] = Smell added, RebM solution (Experimental Examples 20-21); settings: acid added alone at 10000 ppb
SMILES,smell added [1],smell added [2],smell added ([3]; acid added alone at 10000 ppb),smell added ([3]; acid added alone at 1000 ppb),smell added [4]
CCCCCCCCCCCC(=O)O [dodecanoic acid],added (A smell was considered to be added when two or more panel members detected a smell derived from the compound.),added (A smell was considered to be added when two or more panel members detected a smell derived from the compound.),–,–,–
CCCCCCCCC(=O)O [nonanoic acid],–,added (A smell was considered to be added when two or more panel members detected a smell derived from the compound.),added (A smell was considered to be added when two or more panel members detected a smell derived from the compound.),–,–
CCCCCCCC(=O)O [octanoic acid],–,–,added (A smell was considered to be added when two or more panel members detected a smell derived from the compound.),added (A smell was considered to be added when two or more panel members detected a smell derived from the compound.),added (A smell was considered to be added when two or more panel members detected a smell derived from the compound.)
CCCCCCCCCCC(=O)O [undecanoic acid],added (A smell was considered to be added when two or more panel members detected a smell derived from the compound.),added (A smell was considered to be added when two or more panel members detected a smell derived from the compound.),added (A smell was considered to be added when two or more panel members detected a smell derived from the compound.),–,added (A smell was considered to be added when two or more panel members detected a smell derived from the compound.)
